In PubChem BioAssay AID1347075 (National Center for Advancing Translational Sciences (NCATS), 2019):
Several values for one entry are separate records, joined by “and”; a condition that tells them apart may be missing. Equal entries are not always repeated. Screen size: about 400,000 compounds; about 5,500 (1.4%) were called active. Inconclusive means that the source gave no clear call. Such entries were picked first, then a sample of the others. The call rests on the fitted dose curve; in most records, active means well fitted cell-killing curve with a large enough effect; inconclusive means small, poorly fitted or top-dose-only effect, or effect the other way; inactive means flat fitted curve, though single readings scatter. Where the call is inconclusive, the potency comes from a doubtful curve fit.

Assay: qHTS assay for MDR1-selective chemotherapeutics: Primary screen using the parental adenocarcinoma cell KB-3-1; further: nearly all actives have a fitted effect of over 60% in size
Details: KB-3-1 viability, CellTiter-Glo ATP luminescence, 72 h; activity change, negative = cytotoxic: at 46.1 µM (top of the series)
Method in brief: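 Screening of KB-3-1 cells (DMEM, 10% FBS, phenol-red free) ran from lowest to highest compound concentration; after 72 h at 37 °C viability was read luminescently and curves fitted.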
On the % scale 0 is the no-effect control and ±100 the full control effect; potency means the concentration at half of the fitted maximal effect.

| Structure (SMILES) | Potency | activity change, negative = cytotoxic |
| --- | --- | --- |
| CCc1nc2c(OCc3ccc(F)cc3)cccn2c1N(C)C(=O)COc1ccccc1 | active: 23.1 µM | – |
| CCN1CCN(C(=O)CCc2nnc3ccc(N4CCN(c5cccc(OC)c5)CC4)nn23)CC1 | inconclusive: 29.1 µM [cytotoxic, single point] | – |
| COc1ccc(C(CNC(=O)CCNS(=O)(=O)c2ccccc2)N2CCOCC2)cc1 (stereo not given) | inactive | – |
| CCOC(=O)C1(Cc2ccc(Cl)cc2)CCN(C(=O)CCc2cnccn2)CC1 | inconclusive: 29.1 µM [cytotoxic, single point] | – |
| Cc1ccc(NC(=O)NC(=O)c2ccccc2)cc1F | – | inconclusive: -4.74% |
| Cn1c(=O)c2c(nc(NCc3cccnc3)n2Cc2ccc(Cl)cc2)n(C)c1=O | inconclusive: 18.4 µM [cytotoxic, single point] | – |
| NC(=O)/C(=N\OC(=O)c1ccco1)c1nc(-c2ccc(Br)cc2)cs1 | inconclusive: 11.6 µM [cytotoxic, partial curve] | – |
| COc1cccc(S(=O)(=O)N(C)C[C@@H]2OCc3cnnn3CCCC(=O)N([C@@H](C)CO)C[C@@H]2C)c1 | inactive | – |
| COCn1c(-c2cccc(Br)c2)nc2ccccc21 | inactive | – |
| Cc1nnc(SCC(=O)NC2CCCCCC2)n1N | – | inconclusive: -1.83% |
| N#CC1=C(N)Oc2cc(N)ccc2C1c1ccccc1Cl (stereo not given) | inconclusive: 29.1 µM [cytotoxic, single point] | – |
| CN(C)c1ccc(/C=C/c2nc3ccccc3o2)cc1 | inactive | – |
| COc1ccccc1N1CCN(C(=O)CCc2nnc3ccc(N4CCC(C)CC4)nn23)CC1 | inconclusive: 32.6 µM [cytotoxic, single point] | – |
| COc1ccc2nc(SCC(=O)Nc3nonc3C)[nH]c2c1 | inconclusive: 0.0651 µM [rising, full curve] | – |
| CCN1CCN(S(=O)(=O)c2ccc(Cl)c(C(=O)NC(C)c3ccccc3Cl)c2)CC1 (stereo not given) | inactive | – |
| Cc1cc(N2CCN(C)CC2)nc(=S)[nH]1 | inconclusive: 18.4 µM [rising, single point] | – |
| COC(=O)[C@@H](CC(C)C)N(Cc1ccccc1)S(=O)(=O)N(Cc1ccccc1)[C@@H](CC(C)C)C(=O)OC | inconclusive: 25.9 µM [cytotoxic, single point] | – |
| COC(=O)c1cc(=O)n(CCc2ccccc2F)c(=Nc2ccc(F)c(Cl)c2)s1 | inconclusive: 23.1 µM [cytotoxic, single point] | – |
| COc1ccc(CCNC(=O)CS(=O)(=O)Cc2nc(-c3cccc(Cl)c3)oc2C)cc1OC | inactive | – |
| O=C(O)CCC(=O)Nc1ccc(SSc2ccc(NC(=O)CCC(=O)O)cc2)cc1 | inactive | – |
| COc1ccc(C(=O)c2ccccc2)cc1 | inconclusive: 18.4 µM [rising, single point] | – |
| O=C(CCS(=O)(=O)c1cc(Br)cc2c1N(C(=O)C1CC1)CC2)N1CCN(c2cccc(C(F)(F)F)c2)CC1 | inconclusive: 18.4 µM [cytotoxic, single point] | – |
| Cc1cc(C)c2cc(C#N)c(SCC(=O)NCc3ccco3)nc2c1 | inconclusive: 18.4 µM [cytotoxic, single point] | – |
| OCCSc1ncnc2c1oc1ccccc12 | inactive | – |

| Structure (SMILES) | Potency | activity change, negative = cytotoxic |
| --- | --- | --- |
| CCc1ccc(C)[n+](CC(=O)c2cccs2)c1 | inconclusive: 0.0052 µM [cytotoxic, full curve, poor fit] | – |
| CCCCn1nnnc1C(c1cc2ccccc2o1)N1CCN(C/C=C/c2ccccc2)CC1 (stereo not given) | inconclusive: 25.9 µM [cytotoxic, single point] | – |
| COc1ccc(CNC(=O)c2sc3nc4n(c(=O)c3c2C)CCC4)cc1 | inactive | – |
| COc1ccccc1/C=C(\NC(=O)c1ccccc1)C(=O)NCc1ccco1 | inactive | – |
| CC(C)N(Cc1nc(-c2ccc(Cl)cc2)no1)C(=O)c1ccco1 | inconclusive: 14.6 µM [cytotoxic, partial curve] | – |
| CC1(C)Cc2c(c(=S)nc(-c3ccccc3)n2CCCN2CCOCC2)CO1 | inactive | – |
| COc1ccc2c(c1)c1c(c(=O)n(-c3cccc(C)c3)c(=O)n1CC(=O)NCc1ccc(C)cc1)n2C | inactive | – |
| COc1cc2nc(CSc3nc(-c4ccc(F)cc4)cs3)[nH]c(=O)c2cc1OC | – | inconclusive: -32.9% [cytotoxic] |
| CCCCOC(=O)C1C2C=C[C@]3(CN(CCCOC)C(=O)[C@H]13)O2 (stereo not given in full) | inactive | – |
| CC(C)(C)c1ccc(C(=O)NC(Cc2c[nH]c3ccccc23)C(=O)OCC(=O)c2ccc(Br)cc2)cc1 (stereo not given) | inactive | – |
| CCC(C)C1Nc2ccc(C(=O)NCCc3ccc(OC)c(OC)c3)cc2NC1=O (stereo not given) | inconclusive: 29.1 µM [cytotoxic, single point] | – |
| CS(=O)(=O)N(Cc1ccccc1)c1ccc(C(=O)N2CCc3ccccc3C2)cc1 | inconclusive: 20.6 µM [cytotoxic, single point] | – |
| COc1ccc(NC(=O)C2CCCN(S(=O)(=O)c3ccc4c(c3)oc(=O)n4C)C2)cc1OC (stereo not given) | inactive | – |
| O=C(CCNC(=O)c1ccc(Br)cc1)Nc1ccccc1N1CCOCC1 | inconclusive: 29.1 µM [rising, partial curve, poor fit] | – |
| Cn1c(CCNC(=O)c2ccco2)nc2cc(NC(=O)c3ccco3)ccc21 | inactive | – |
| C=CCNC(=O)C(=O)NCC(c1ccc2c(c1)OCO2)N1CCN(c2ccc(F)cc2)CC1 (stereo not given) | inactive | – |
| O=S(=O)(Nc1ccc(-c2ccc(NS(=O)(=O)c3ccccc3)cc2)cc1)c1ccccc1 | inconclusive: 8.2 µM [cytotoxic, partial curve] | – |
| COc1ccc(Nc2nc(S(=O)(=O)c3ccc(C)cc3)c(Cl)s2)cc1 | inconclusive: 18.4 µM [cytotoxic, single point] | – |
| C(=N/Nc1cc(N2CCOCC2)nc(N2CCOCC2)n1)/c1ccccc1 | inconclusive: 29.1 µM [cytotoxic, single point] | – |
| O=C(CCCSc1ccccc1)Nc1ccc(Cl)c(S(=O)(=O)N2CCOCC2)c1 | inconclusive: 20.6 µM [cytotoxic, single point] | – |
| Cc1ccc(C(C)C)c(OCCCN2CCc3ccccc3C2)c1 | inactive | – |
| CCC1CN(C(=O)NCc2ccccc2)c2cc(Cl)ccc2O1 (stereo not given) | inconclusive: 29.1 µM [cytotoxic, single point] | – |
| COc1ccc(CNC(=O)Nc2cccc(C(F)(F)F)c2)cc1OC | inactive | – |
| CCOC(=O)c1ccc(NC(=O)CSc2ccc(-c3ccccn3)nn2)cc1 | inconclusive: 20.6 µM [cytotoxic, single point] | – |

One compound at a time (already shown).
`CCCCn1nnnc1C(c1cc2ccccc2o1)N1CCN(C/C=C/c2ccccc2)CC1` (stereo not given) in the list: Potency: inconclusive: 25.9 µM [cytotoxic, single point]
`COc1ccc(CNC(=O)Nc2cccc(C(F)(F)F)c2)cc1OC` in the list: Potency: inactive

The listing continues.

| Structure (SMILES) | Potency | activity change, negative = cytotoxic |
| --- | --- | --- |
| CCOc1ccc2[nH]c3c(N4CCc5ccccc5C4)ncnc3c2c1 | inconclusive: 29.1 µM [cytotoxic, single point] | – |
| CCN(CC)c1cc(C)c2cc(NC(=O)c3ccccc3Cl)ccc2n1 | inconclusive: 29.1 µM [cytotoxic, single point] | – |
| CCOc1ccc(CCN2C(=S)N([C@@H](Cc3ccccc3)CN3CCC[C@@H]3CN3C(=S)NC[C@@H]3Cc3ccc(O)cc3)C[C@@H]2CC(C)C)cc1 | inactive | – |
| Cc1ccc(S(=O)(=O)c2nc(Cc3ccccc3)oc2N2CCOCC2)cc1 | inactive | – |
| COc1ccc(NC(=O)CC2C(=O)N(C)C(=S)N2CCc2ccccc2)cc1 (stereo not given) | inconclusive: 18.4 µM [cytotoxic, partial curve, poor fit] | – |
| Cc1c(CN2CCN(CC(C)C)C(CCO)C2)[nH]c2ccc(Cl)cc12 (stereo not given) | inconclusive: 23.1 µM [cytotoxic, single point] | – |
| COc1cc(C(=O)/C=C/c2cccnc2)ccc1O | inconclusive: 29.1 µM [cytotoxic, single point] | – |
| COc1cccc(N2CCN(C(=O)C3CCCN(S(=O)(=O)c4ccc5c(c4)oc(=O)n5C)C3)CC2)c1 (stereo not given) | active: 11.6 µM and inconclusive: 2.31 µM [cytotoxic, partial curve, poor fit] | – |
| CC1CN(S(=O)(=O)c2cccc(C(=O)Nc3ccccc3N3CCCCC3)c2)CC(C)O1 (stereo not given) | inconclusive: 29.1 µM [cytotoxic, single point] | – |
| COc1ccc(-c2ccc(CN3C(C(C)C)C(=O)N(Cc4cn(CC5CCCCC5)nn4)CCS3(=O)=O)cc2)cc1 (stereo not given) | inconclusive: 32.6 µM [cytotoxic, partial curve, poor fit] | – |
| CCN(CC)S(=O)(=O)c1ccc(-c2cn3ccccc3n2)cc1 | inactive | – |
| CC(C)(C)c1cccc(Oc2nn[nH]n2)c1 | inactive | – |
| CN(Cc1ccccc1)c1nc(N)c([N+](=O)[O-])c(NCc2ccccc2)n1 | inconclusive: 20.6 µM [cytotoxic, single point] | – |
| CCSc1cc(N2CCOCC2)nc(-c2ccc(Cl)cc2)n1 | inactive | – |
| Cc1cccc(C(=O)Nc2nccs2)c1[N+](=O)[O-] | inconclusive: 0.0259 µM [rising, full curve] | – |
| CN(C=O)c1ccc(CSc2ccccc2)cc1 | inconclusive: 0.0517 µM [rising, full curve] | – |
| COc1ccc(NC(=S)Nc2cccnc2)c(OC)c1 | inactive | – |
| Nc1cc(=O)[nH]c(SCC(=O)N2CCC(Cc3ccccc3)CC2)n1 | inconclusive: 32.6 µM [cytotoxic, single point] | – |
| CCCn1nc(C(=O)Nc2cccc(S(=O)(=O)N(C)c3ccccc3)c2)c2ccccc2c1=O | inactive | – |
| O=C(NCCC1=CCCCC1)C1CCN(Cc2cnn(-c3ccccc3)c2-n2cccc2)CC1 | inconclusive: 16.4 µM [cytotoxic, single point] | – |
| N#Cc1c(Oc2ccc3ccccc3c2)sc(C(=O)c2ccccc2)c1N | inconclusive: 29.1 µM [cytotoxic, single point] | – |
| O=C1NC[C@H](c2ccccc2)OC(=O)[C@@H](Cc2ccc(F)cc2)CC/C=C/C[C@@H]1CC(=O)N(CCO)Cc1ccccc1 | inconclusive: 29.1 µM [cytotoxic, single point] | – |

Look-ups from above.
COc1ccc(-c2ccc(CN3C(C(C)C)C(=O)N(Cc4cn(CC5CCCCC5)nn4)CCS3(=O)=O)cc2)cc1 (stereo not given) – Potency: inconclusive: 32.6 µM [cytotoxic, partial curve, poor fit]
CC(C)(C)c1cccc(Oc2nn[nH]n2)c1 – Potency: inactive
